Test results reported in patent publication US20150315292A1 (VANDERBILT UNIVERSITY, published 2015).
Results are given in words; binding and its absence hold for the method and conditions named. Some binding calls cover weakened binding; strength is not graded here.

Key:
[1] = molecular target: T1, human coagulation factor XIIa (human) (UniProt P00748); assay: summary of the Example 2 results (Western blots)
T1 sequence (looked up) 1: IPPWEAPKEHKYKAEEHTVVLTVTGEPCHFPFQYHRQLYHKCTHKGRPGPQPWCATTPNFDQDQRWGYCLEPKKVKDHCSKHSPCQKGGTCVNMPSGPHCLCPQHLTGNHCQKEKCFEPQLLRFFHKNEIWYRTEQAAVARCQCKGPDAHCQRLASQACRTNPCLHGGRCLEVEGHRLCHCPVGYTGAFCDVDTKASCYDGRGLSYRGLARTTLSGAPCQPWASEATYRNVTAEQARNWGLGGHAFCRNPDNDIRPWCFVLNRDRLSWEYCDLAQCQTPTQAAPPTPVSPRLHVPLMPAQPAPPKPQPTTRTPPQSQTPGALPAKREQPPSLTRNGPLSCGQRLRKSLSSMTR
T1 sequence (looked up) 2: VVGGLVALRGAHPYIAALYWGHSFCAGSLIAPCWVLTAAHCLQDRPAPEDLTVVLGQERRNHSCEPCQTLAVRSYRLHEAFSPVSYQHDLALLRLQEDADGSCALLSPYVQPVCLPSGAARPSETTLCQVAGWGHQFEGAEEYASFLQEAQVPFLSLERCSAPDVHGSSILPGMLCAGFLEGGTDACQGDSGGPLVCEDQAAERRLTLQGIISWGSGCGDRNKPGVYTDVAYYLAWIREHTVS

[2] = molecular target: T2, human coagulation factor XII (human) (UniProt P00748); assay: summary of the Example 2 results (Western blots)
T2 sequence (looked up): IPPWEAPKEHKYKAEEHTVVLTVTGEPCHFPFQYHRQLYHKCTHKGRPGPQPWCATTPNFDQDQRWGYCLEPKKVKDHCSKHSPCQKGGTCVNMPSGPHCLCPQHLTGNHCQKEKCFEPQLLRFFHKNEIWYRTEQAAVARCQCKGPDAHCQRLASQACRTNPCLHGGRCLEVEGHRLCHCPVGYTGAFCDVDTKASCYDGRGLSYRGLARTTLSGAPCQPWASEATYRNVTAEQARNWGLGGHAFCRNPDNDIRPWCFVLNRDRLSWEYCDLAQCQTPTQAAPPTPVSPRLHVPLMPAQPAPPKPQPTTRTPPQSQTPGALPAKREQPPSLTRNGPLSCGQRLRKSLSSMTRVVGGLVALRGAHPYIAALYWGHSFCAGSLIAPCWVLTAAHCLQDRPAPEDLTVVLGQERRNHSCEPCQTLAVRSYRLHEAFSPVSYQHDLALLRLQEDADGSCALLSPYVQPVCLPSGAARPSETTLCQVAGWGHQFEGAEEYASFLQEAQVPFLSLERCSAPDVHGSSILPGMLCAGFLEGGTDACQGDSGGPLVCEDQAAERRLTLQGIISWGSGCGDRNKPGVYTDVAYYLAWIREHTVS

[3] = molecular target: T1, human coagulation factor XIIa (human); assay: recombinant fXII lacking domains and fXII/HGFA chimeras
[4] = molecular target: T2, human coagulation factor XII (human); assay: as above
[5] = molecular target: T2, human coagulation factor XII (human); assay: Western blot of plasma after SDS-PAGE

Measured: binding

B1: monoclonal anti-human fXII antibody AB042 (antibody, V domains shown)
VH: EVQLQQSGAELVRPGASVKLSCTASGFNIKDDYMHWVKQRPEQGLEWIGWIDPENGDTEYASKFQGKATITSDTSSNTAYLQLSSLTSEDTAVYYCTENYYGSSFFAYWGQGTLVTVSA
VL: DIVMTQATPSVPVTPGESVSISCRSSKSLLHSNGITYLYWFLQRPGQSPQRLIYYMSNLASGVPDRFSGRGSGTDFTLRISRVEAEDVGVYYCMQSLEYPYTFGGGTKLEIKR
notes: Mouse hybridoma IgG raised in fXII knockout mice immunized with human fXII
binds: all assays above
